No constants are given. Whether binding was seen depends on the method and setting. Some binding calls cover weakened binding; strength is not graded here.

Amino acid sequences for entries named in this document (tags omitted). A change or cut given only in a name is not applied to a line headed by its entry.
UniProt Q13421: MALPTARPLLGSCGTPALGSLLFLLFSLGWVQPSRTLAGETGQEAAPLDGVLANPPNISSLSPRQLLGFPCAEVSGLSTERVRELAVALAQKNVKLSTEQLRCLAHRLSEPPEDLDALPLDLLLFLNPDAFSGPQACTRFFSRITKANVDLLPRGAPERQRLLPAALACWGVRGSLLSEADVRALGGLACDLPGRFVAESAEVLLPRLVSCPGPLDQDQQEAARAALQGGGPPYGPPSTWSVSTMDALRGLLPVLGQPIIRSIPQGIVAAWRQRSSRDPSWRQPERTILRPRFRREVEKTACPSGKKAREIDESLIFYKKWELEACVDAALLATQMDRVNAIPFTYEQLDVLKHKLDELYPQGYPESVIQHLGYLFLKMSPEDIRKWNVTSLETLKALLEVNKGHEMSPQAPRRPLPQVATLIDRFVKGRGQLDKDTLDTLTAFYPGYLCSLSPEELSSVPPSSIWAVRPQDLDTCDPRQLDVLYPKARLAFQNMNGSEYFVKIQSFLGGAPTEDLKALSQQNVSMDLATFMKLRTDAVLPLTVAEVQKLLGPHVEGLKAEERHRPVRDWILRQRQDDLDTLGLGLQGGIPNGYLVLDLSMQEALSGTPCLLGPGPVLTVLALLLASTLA

The target in this assay is soluble recombinant human mesothelin (human) (UniProt Q13421). In words: Octet, soluble recombinant mesothelin.

B1: 4H6 (antibody, human IgG1, V domains shown)
VH: QVQLVESGGGLVKPGGSLRLSCAASGFTFSDYYMTWIRQAPGKGLEWISYISSSGSTIYYADSVKGRFTISRDNAKNSLYLQMNSLRAEDTAVYYCARDRNSHFDYWGQGTLVTVSS
VL: DIQMTQSPSSVSASVGDRVTITCRASQGITRWLAWYQQKPGKAPKLLIYAASVLQSGVPSRFSGSGSGTDFTLTISSLQPEDFATYYCQQSNSFPRTFGQGTKVEIK
In the case of B1, the binding entry is reported as “binds”.

For the origin of these results see US20260109776A1.
